# According to PubChem BioAssay AID652054 (National Center for Advancing Translational Sciences (NCATS), 2013):
# Amino acid sequences for entries named in this document (tags omitted).
# UniProt P35462, whole entry, looked up: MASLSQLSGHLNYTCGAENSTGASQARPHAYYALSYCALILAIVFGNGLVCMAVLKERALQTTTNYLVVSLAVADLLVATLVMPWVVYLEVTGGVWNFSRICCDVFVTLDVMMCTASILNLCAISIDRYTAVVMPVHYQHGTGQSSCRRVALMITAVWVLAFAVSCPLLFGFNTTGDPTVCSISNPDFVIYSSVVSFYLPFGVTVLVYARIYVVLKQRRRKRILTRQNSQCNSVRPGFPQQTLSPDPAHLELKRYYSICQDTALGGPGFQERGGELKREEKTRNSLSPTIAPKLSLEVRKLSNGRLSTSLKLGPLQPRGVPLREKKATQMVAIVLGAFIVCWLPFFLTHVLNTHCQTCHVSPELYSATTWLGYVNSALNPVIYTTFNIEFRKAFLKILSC
# The whole screen tested about 360,000 compounds, of which about 9,100 (2.5%) were called active. Inconclusive results, whose numbers are uncertain, are shown with a selection of clear calls. No stated cut-off is given here; in the data, active means max response below about -50%; inconclusive means no clear call, values can overlap the other calls; inactive means above that.
# Molecular target: D(3) dopamine receptor (Homo sapiens) (UniProt P35462)
# Assay: qHTS of D3 Dopamine Receptor Antagonist: qHTS
# Conditions: D3R cells, DiscoveRx beta-arrestin luminescence, antagonist mode; hits give low values
# Summary of the method: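 Cells plated overnight at 1500 cells/well, then exposed to library compounds with dopamine controls for 90 minutes at 37 degrees C. DiscoveRx reagent added for 30–60 minutes at room temperature; luminescence read, quantitative HTS format.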
# On the % scale 0 is the no-effect control and ±100 the full control effect.
row,Structure (SMILES),"max response, negative = inhibition"
1,O=S(=O)(c1ccccc1)c1nnn2c1nc(NC1CCN(Cc3ccccc3)CC1)c1cc(Cl)ccc12,inconclusive: -32.8%
2,CN1CCN(c2ccc(NC(=O)COc3ccccc3)cc2Cl)CC1,inconclusive: -36.3%
3,CCCC(C)NC(=S)NC(=O)c1cc(S(=O)(=O)N2CCOCC2)ccc1C (stereo not given),inactive: 0.179%
4,CCN1C=C(Cc2cccs2)C2=C(C1)C(c1cccs1)C(C#N)=C(N)O2 (stereo not given),inconclusive: -31.2%
5,Fc1ccccc1CNCCC(Cc1ccccc1)c1ccc2c(c1)OCO2 (stereo not given),inactive: -16%
6,C=CCSc1nccc(-c2nn(-c3ccc(C)cc3)ccc2=O)n1,inconclusive: -38.8%
7,CCOC(=O)[C@]12CCCC=C1N(Cc1ccccc1)C(=O)[C@H](CC(=O)NCc1ccc(OC)c(OC)c1)C2,inconclusive: -37.8%
8,O=C1NC[C@H](CCCCN2C[C@H](Cc3ccc(O)cc3)N(CCc3ccccc3)C(=O)C2=O)N(CCc2ccccc2)C1=O,inactive: 4.98%
9,CCC(=O)N1CCCC1(C)C(=O)Nc1ccc2nc(C)ccc2c1 (stereo not given),inactive: 13.5%
10,CCn1cc(Br)c(C(=O)Nc2sc3c(c2C(N)=O)CCCC3)n1,inactive: -5.01%
11,CCCCCCCCNCCS(=O)(=O)NCc1ccccc1,active: -81%
12,CCN1CCN(c2ccc(S(=O)(=O)N3CCCCC3)cc2NC(=O)/C=C/c2ccc(OC)c(OC)c2)CC1,inconclusive: -32.7%
13,Cc1ccc(NC(=S)N2CCN(C3CCCCC3)CC2)cc1,inconclusive: -38.5%
14,O=C(NCCN1CCCC1)c1ccc(Br)cc1,active: -76.8%
15,C/C(=N\NC(=O)Cn1nc(C)c(Br)c1C)c1cccs1,inconclusive: -48.7%
16,Cc1ccc(OCCCCNC2CCCCC2)c(C)c1,active: -79.4%
17,COc1ccc(N2CCN(C3CCCN(Cc4cccc(C(C)=O)c4)C3)CC2)cc1 (stereo not given),inconclusive: -42.6%
18,O=C(c1ccoc1)N1CCC2(CC1)Oc1ccc(Cl)cc1C(=O)C21CC(c2cccnc2)=NO1 (stereo not given),inactive: 33.1%
19,c1ccc(CN2CCN(CCOCCOc3cccc4ccccc34)CC2)cc1,inconclusive: -46.9%
20,c1ccc(CN2CCN(C3CCCSc4ccccc43)CC2)cc1 (stereo not given),active: -84.9%
21,C=CCc1cc(Cl)ccc1OCCN(C)C,active: -54.5%
22,CC(=O)C1=C(S(=O)(=O)c2ccc(C)cc2)CS(=O)(=O)C1,active: -66.6%
23,O=C(N/N=C/c1cccc([N+](=O)[O-])c1)C1CC(=O)N(c2ccc(Cl)cc2)C1 (stereo not given),inconclusive: -36.3%
24,C/C=C/c1cc(CN2CCN(c3ccccc3)CC2)c(O)c(OC)c1,active: -98.1%
25,CCOc1ccc(NC(=O)[C@@H]2CCCN2C(=O)c2cccs2)cc1S(=O)(=O)N1CCCCC1,inconclusive: -37%
26,COc1ccc(N2CCC(CNC(=O)Nc3ccc(OC)cc3OC)C2)cc1 (stereo not given),inconclusive: -30%
27,CN(C)CCC1CCN(c2cc(C#N)c(C#N)cc2[N+](=O)[O-])CC1,inconclusive: -34.6%
28,CCC(SC1=N/C(=C/c2ccccc2)C(=O)N1c1ccccc1)C(=O)Nc1cc(C)on1 (stereo not given),inconclusive: -36%

# In the list so far, 2 contain a nitro group on carbon.
row,Structure (SMILES),"max response, negative = inhibition"
23,O=C(N/N=C/c1cccc([N+](=O)[O-])c1)C1CC(=O)N(c2ccc(Cl)cc2)C1 (stereo not given),inconclusive: -36.3%
27,CN(C)CCC1CCN(c2cc(C#N)c(C#N)cc2[N+](=O)[O-])CC1,inconclusive: -34.6%

# Later entries.

row,Structure (SMILES),"max response, negative = inhibition"
1,C#CC[N+]1(CC#Cc2cccc(C)c2)CCCCC1,inactive: 4.86%
2,COc1cccc(/C=N/Nc2ccc([N+](=O)[O-])cn2)c1O,inconclusive: -31.4%
3,Cc1cc2cc(CN(CC3CCCO3)C(=S)NCc3ccco3)c(=O)[nH]c2cc1C (stereo not given),inactive: -17%
4,Cc1ccc(Nc2cc(C)nc(-c3ccccc3)n2)cc1,inactive: -19.6%
5,CCOc1cc(/C=C2\N=C(SCC)SC2=O)cc([N+](=O)[O-])c1OC(C)=O,active: -96.6%
6,CC1CCCc2sc3nc(N4CCN(CCO)CC4)n4ncnc4c3c21 (stereo not given),active: -56.3%
7,C=CCc1cccc(Cl)c1OCCCNC1CCCC1,active: -89%
8,Cc1cc(N=Nc2ccc3ccccc3c2)ccc1O,inconclusive: -34.5%
9,Cc1cc(O)ccc1-c1cc(C(=O)NCc2ccc(F)cc2)[nH]n1,inconclusive: -39.9%
10,COc1cccc(OCC(O)CN2CC(C)CC(C)C2)c1 (stereo not given),inconclusive: -32.2%
11,Cc1[nH]c2ccccc2c1NC(=O)CN1CCN(c2cccc(C(F)(F)F)c2)CC1,inconclusive: -48.2%
12,O=C(NCC(=O)N(c1ccccc1)C(C(=O)NC1CCCC1)c1cccnc1)c1ccco1 (stereo not given),inconclusive: -38.9%
13,COC(=O)c1cn(CC(=O)N2C(C)CCCC2C)c2ccccc12 (stereo not given),inactive: 0%
14,Cc1cc(C)cc(SCc2noc(C(=O)NCC3CC3)c2C(=O)NCC2CC2)c1,inactive: 1.85%
15,Cc1ccc(S/C=C\C(=O)c2ccccc2)cc1,active: -52.8%
16,CCOC(=O)SC1=N/C(=C\c2ccc(N(C)C)cc2)C(=O)S1,active: -54%
17,COc1ccc(C2/C(=C(\O)c3ccc4c(c3)OCCO4)C(=O)C(=O)N2c2nc(C)c(C(C)=O)s2)cc1 (stereo not given),inconclusive: -34.1%
18,COc1ccccc1-c1n[nH]c(=S)o1,active: -81.6%
19,Cc1cc2nc(CCN(C(=S)NCC3CCCO3)C3CCCC3)[nH]c2cc1C (stereo not given),inactive: -3.77%
20,Cc1ccc2nc(N(CCN(C)C)C(=O)C3CCN(S(=O)(=O)c4cccs4)CC3)sc2c1,inactive: -2.7%
21,C=CCNC(=O)Nc1ccc(Br)cc1Cl,inactive: 29%
22,O=C1CCCCCN1C(=O)c1cccc(C(=O)N2CCCCCC2=O)c1,inconclusive: -36.8%
23,C#CCOCCOCCOCCNc1nc(N2CCN(C(=O)CCCCCCCCCCNC(=O)[C@H](CCCCN)n3cc(CCO)nn3)CC2)nc(N2CCN(C(=O)CCCCCCCCCCNC(=O)[C@H](CCCN=C(N)N)n3cc(C[C@@H](C)CC)nn3)CC2)n1,inconclusive: -44%
24,CCOC(=O)N1CCN(Cc2cn3ccccc3n2)CC1,inconclusive: -42.3%
25,CN(CC(=O)Nc1cc([N+](=O)[O-])ccc1Cl)Cc1ccc(Br)cc1,active: -85.3%
26,O=C(CC1NCCc2ccccc21)Nc1ccc(Oc2ccccc2)cc1 (stereo not given),inconclusive: -33.1%
27,O=C(CSc1nnnn1-c1ccc2c(c1)OCCO2)Nc1nc2c(s1)CCCC2,inactive: 14.4%
